# From EP3885436A1, “POLYPEPTIDES WITH PEROXIDASE ACTIVITY” (Technische Universität Wien, priority 2020, dated 2021)
# Protein sequences, listed by entry. Tags and fused reporters are not part of them. Residues count along the entry.
# UniProt P00433, 31-338 N43D/N87S/N205S/N285D/N298D: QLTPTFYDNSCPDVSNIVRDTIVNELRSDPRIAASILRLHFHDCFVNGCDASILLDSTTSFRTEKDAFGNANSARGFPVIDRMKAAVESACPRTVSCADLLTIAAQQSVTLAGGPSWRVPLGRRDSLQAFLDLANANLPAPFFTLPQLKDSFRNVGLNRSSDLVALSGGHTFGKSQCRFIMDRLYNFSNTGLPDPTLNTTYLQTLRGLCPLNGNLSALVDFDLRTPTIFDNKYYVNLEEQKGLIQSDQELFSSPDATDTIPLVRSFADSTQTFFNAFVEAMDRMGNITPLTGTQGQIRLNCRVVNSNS
# UniProt P00433, 31-338 N43D/N87S/P176Q/N205S/N285D/N298D/N305K: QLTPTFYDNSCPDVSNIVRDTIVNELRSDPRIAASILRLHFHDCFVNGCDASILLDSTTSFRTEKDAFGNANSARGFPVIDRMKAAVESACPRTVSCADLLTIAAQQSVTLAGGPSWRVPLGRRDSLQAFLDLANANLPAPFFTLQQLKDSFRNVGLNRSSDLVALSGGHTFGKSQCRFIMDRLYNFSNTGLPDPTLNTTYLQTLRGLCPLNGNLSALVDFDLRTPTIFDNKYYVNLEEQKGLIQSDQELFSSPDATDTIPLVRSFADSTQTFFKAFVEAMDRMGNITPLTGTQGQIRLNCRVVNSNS
# Like-named read-outs stand apart in the source and are kept apart here. The name of at least one read-out is uncertain.
# What was measured:
# Type in all cases: biochemical
# [1] = target: T1, horseradish peroxidase, wild-type HRP (rHRP, variant C1A, SEQ ID NO: 2), produced in E. coli (Armoracia rusticana, UniProt P00433); assay: Enzyme kinetic parameters, 96-well plate assay; settings: substrate TMB (20 - 550 µM), 1 mM H2O2, 50 mM phosphate-citrate buffer pH 5, 30 °C; Table 6
# T1 construct: made in house
# T1 sequence (P00433 with tags, fused parts or gaps): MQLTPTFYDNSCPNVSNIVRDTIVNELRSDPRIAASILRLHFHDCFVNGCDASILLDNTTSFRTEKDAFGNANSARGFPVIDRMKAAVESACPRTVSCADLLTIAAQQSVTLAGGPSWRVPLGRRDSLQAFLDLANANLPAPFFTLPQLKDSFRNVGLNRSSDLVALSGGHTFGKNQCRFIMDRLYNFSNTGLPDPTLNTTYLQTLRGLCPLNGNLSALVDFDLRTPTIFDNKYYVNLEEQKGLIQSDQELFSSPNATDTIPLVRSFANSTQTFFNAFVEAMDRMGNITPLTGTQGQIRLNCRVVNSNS
# Experimental: (§1) Plant HRP Type VI-A (Cat. No.: P6782) was obtained from Sigma-Aldrich (St. Louis, MO, USA). All HRP variants produced in E. coli consisted of the sequence as set forth in SEQ ID NO: 2 with the indicated mutations unless specified otherwise.
# (§2) For measurements with 3,3',5,5'-tetramethylbenzidine (TMB) as substrate, the reaction mixture in each well of the 96-well plate contained a saturating hydrogen peroxide concentration of 1 mM and varying TMB concentrations (20 - 550 µM) in 50 mM phosphate-citrate buffer pH 5 in a final volume of 200 µL. Protein sample (5 µL) was mixed with 175 µl TMB-buffer mixture and the reaction was started with 20 µl hydrogen peroxide solution (10 mM). The increase in absorption was followed at 652 nm for 60s at 30 °C in a Tecan Infinite M200 PRO instrument. The kinetic parameters were calculated using Sigma Plot software (Systat Software INC., San Jose, CA, USA) and an extinction coefficient of ε652 = 39 mM^-1 cm^-1 (see Josephy, et al. "The horseradish peroxidase-catalyzed oxidation of 3, 5, 3', 5'-tetramethylbenzidine. Free radical and charge-transfer complex intermediates." Journal of Biological Chemistry 257.7 (1982): 3669-3675).
# (§3) The increase in absorption was followed at 420 nm for 120 s at 30 °C in a Tecan Infinite M200 PRO instrument. […]
# [2] = target: T2, plant-derived HRP (pHRP), Plant HRP Type VI-A, horseradish peroxidase (Armoracia rusticana, UniProt P00433); assay: Enzyme kinetic parameters, 96-well plate assay; settings: substrate TMB (20 - 550 µM), 1 mM H2O2, 50 mM phosphate-citrate buffer pH 5, 30 °C; Table 6
# T2 construct: The plant-derived enzyme undergoes post-translational modifications, resulting inter alia in a free N-terminus without an appended methionine; purchased Sigma-Aldrich P6782; host or cells: extracted from the plant
# T2 sequence (P00433 31-338 limits assumed): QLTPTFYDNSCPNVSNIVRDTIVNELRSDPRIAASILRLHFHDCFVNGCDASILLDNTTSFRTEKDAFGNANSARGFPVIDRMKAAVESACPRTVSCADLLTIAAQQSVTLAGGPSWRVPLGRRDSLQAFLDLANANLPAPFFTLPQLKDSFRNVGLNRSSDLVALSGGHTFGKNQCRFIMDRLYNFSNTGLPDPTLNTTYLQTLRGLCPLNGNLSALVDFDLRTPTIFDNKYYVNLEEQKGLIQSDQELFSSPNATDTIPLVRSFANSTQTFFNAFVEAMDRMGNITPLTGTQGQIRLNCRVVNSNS
# Experimental: as §1, §2, §3
# [3] = target: T3, horseradish peroxidase variant HRP N13D/N57S/N175S/N255D/N268D, produced in E. coli (Armoracia rusticana, UniProt P00433, N205S/N285D/N298D/N43D/N87S); settings: substrate TMB (20 - 550 µM), 1 mM H2O2, 50 mM phosphate-citrate buffer pH 5, 30 °C; Table 2
# T3 construct: made in house
# Experimental: as §1, §2
# (§4) The increase in absorption was followed at 420 nm for 120 s at 30 °C in a Tecan Infinite M200 PRO instrument. The kinetic parameters were calculated using Sigma Plot software (Systat Software INC., San Jose, CA, USA) and an extinction coefficient of ε420 = 36 mM^-1 cm^-1 (see Childs and Bardsley. "The steady-state kinetics of peroxidase with 2, 2'-azino-di-(3-ethyl-benzthiazoline-6-sulphonic acid) as chromogen." Biochemical Journal 145.1 (1975): 93-103).
# as §4
# [4] = target: T4, horseradish peroxidase variant HRP N13D/N57S/P146Q/N175S/N255D/N268D/N275K (mHRP, SEQ ID NO: 4), produced in E. coli (Armoracia rusticana, UniProt P00433, N205S/N285D/N298D/N305K/N43D/N87S/P176Q); settings: substrate TMB (20 - 550 µM), 1 mM H2O2, 50 mM phosphate-citrate buffer pH 5, 30 °C
# T4 construct: made in house
# Experimental: as §1, §2, §4, §4
smiles,measurement,setting,value
"Cc1cc(-c2cc(C)c(N)c(C)c2)cc(C)c1N [TMB, 3,3',5,5'-tetramethylbenzidine]",kcat/Km,[1],40000 ± 6000 M⁻¹ s⁻¹
same,kcat/Km,[2],43000 ± 9000 M⁻¹ s⁻¹
same,kcat/Km,[3],61000 ± 15000 M⁻¹ s⁻¹
same,kcat/Km,[4]; Table 2 (Example 3),51000 ± 12000 M⁻¹ s⁻¹
same,kcat/Km,[4]; Table 6 (Example 4),40000 ± 4000 M⁻¹ s⁻¹
